According to article PMC7501853:
Results are given in words; binding and its absence hold for the method and conditions named. For part of these data: In cells and extracts the contact can be indirect. Some results given as binding are weak or reduced against the parent protein; the word gives no strength. Blank lines part the entries; values can stand above or below the substance they belong to.

Amino acid sequences for entries named in this document (tags omitted). A change or cut given only in a name is not applied to a line headed by its entry. Chains listed by the source or under a name are the forms on record and can include a tag or linker.
UniProt Q07812: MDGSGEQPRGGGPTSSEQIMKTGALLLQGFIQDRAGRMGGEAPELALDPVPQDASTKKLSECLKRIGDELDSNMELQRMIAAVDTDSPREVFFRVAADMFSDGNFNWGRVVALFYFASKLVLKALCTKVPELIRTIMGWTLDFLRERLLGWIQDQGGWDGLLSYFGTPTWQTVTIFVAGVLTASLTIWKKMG
GFP-Bax 63–65 A (Q07812, form named): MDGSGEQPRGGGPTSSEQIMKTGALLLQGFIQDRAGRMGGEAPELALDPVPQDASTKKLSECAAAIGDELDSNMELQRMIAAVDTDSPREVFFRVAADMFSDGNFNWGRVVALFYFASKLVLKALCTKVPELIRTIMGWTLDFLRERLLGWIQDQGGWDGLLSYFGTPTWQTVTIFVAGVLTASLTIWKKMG

Key:
[1] = target: GB-mini-nesprin-2G (UniProt Q6ZWQ0); test: dimerization-dependent fluorescent protein exchange (ddFPX); live Bax/Bak DKO U2OS cells transfected with RA-Bax, GB-mini-nesprin-2G and mito-BFP, untreated or with 20 µM Q-VD-OPH; confocal imaging 24 h after transfection, 37 °C
[2] = target: nesprin-2G (endogenous in human U2OS and HCT116 cells) (human (endogenous in U2OS and HCT116)) (UniProt Q8WXH0); test: proximity ligation; Duolink PLA in Bax/Bak DKO U2OS and HCT116 cells transiently transfected with GFP or GFP-Bax; transfected Bax against endogenous nesprin-2G
[3] = target: nesprin-2-Giant (mouse (endogenous in MEFs)) (UniProt Q6ZWQ0); test: proximity ligation; Duolink PLA in fixed Bax/Bak DKO MEFs transiently transfected, with Q-VD-OPH; anti-Bax 6A7 (GFP-Bax, FLAG-Bax) or anti-His (His-Bax) with anti-nesprin-2G or pan anti-nesprin-2 K2 Ab; dots normalised to cell size, relative to control-transfected cells
[4] = target: nesprin-2 (multiple isoforms, detected by pan anti-nesprin-2 antibodies) (mouse (endogenous in MEFs)) (UniProt Q6ZWQ0); test: proximity ligation; Duolink PLA in fixed Bax/Bak C16 DKO MEFs; Bax induced with doxycycline 24 h, then untreated or 25 µM cisplatin (24 h) or 100 nM staurosporine (17 h) with Q-VD-OPH; anti-Bax 6A7 with anti-nesprin-2 MBS or anti-nesprin-2G Ab
[5] = target: nesprin-2-Giant (mouse (endogenous in MEFs)) (UniProt Q6ZWQ0); test: as above
[6] = target: nesprin-2 (multiple isoforms, detected by pan anti-nesprin-2 antibodies) (mouse (endogenous in MEFs)) (UniProt Q6ZWQ0); test: co-IP; C16 DKO MEF lysates (20 mM Tris pH 7.5, 5 mM EDTA, 5 mM EGTA, 100 mM NaCl, 1% CHAPS); IP with pan anti-nesprin-2 Ab (Santa Cruz) on anti-rabbit IgG-agarose, 18 h at 4 °C; blot with anti-HA; cells untreated, doxycycline, or doxycycline then 25 µM cisplatin with Q-VD-OPH
[7] = target: nesprin-2 (multiple isoforms, detected by pan anti-nesprin-2 antibodies) (mouse (endogenous in MEFs)) (UniProt Q6ZWQ0); test: proximity ligation; Duolink PLA in fixed Bax/Bak DKO MEFs transiently transfected, with Q-VD-OPH; anti-Bax 6A7 (GFP-Bax, FLAG-Bax) or anti-His (His-Bax) with anti-nesprin-2G or pan anti-nesprin-2 K2 Ab; dots normalised to cell size, relative to control-transfected cells
[8] = target: GFP-mini-nesprin-2G (UniProt Q6ZWQ0); test: as above

binding [1]: binds
Substance: RA-Bax (from UniProt Q07812 1-192)

binding [2]: binds
binding [3]: binds
Substance: GFP-Bax (from UniProt Q07812 1-192)

binding [3]: binds
Substance: GFP-Bax S184V (from UniProt Q07812 1-192)

binding [4]: binds
binding [5]: binds
binding [6]: binds
Substance: HA-Bax (from UniProt Q07812 1-192)

binding [3]: binds
Substance: GFP-Bax L63E (from UniProt Q07812 1-192)

binding [3]: binds
Substance: GFP-Bax 63–65 A (from UniProt Q07812 1-192)

binding [7]: binds
binding [3]: binds
Substance: His-Bax (from UniProt Q07812 2-192)

binding [8]: binds
Substance: FLAG-Bax (from UniProt Q07812 1-192)
